# Results of single-concentration screens

Data taken from ChEMBL document CHEMBL3988442, “University of Dundee, Small-Polar-MMV Screening Library” (2021).

Each number is a percent effect as filed.
The controls that fix the scale are not given in the record; negative values are as filed.
Compounds were drawn at random from those tested, without regard to their results.

Mtb glucose medium: 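Growth of Mycobacterium tuberculosis over 3 days (7H9 medium with glucose and tyloxapol); the read-out is not stated. Tested at 500 µM. Direction is inferred from retests: higher values go with more growth inhibition. About 18,000 compounds were tested under these conditions; 7.9% (about 1,400) showed 50% or more at least once.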
Mtb cholesterol medium: 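Growth of Mycobacterium tuberculosis over 4 days (cholesterol / DPPC medium with tyloxapol); the read-out is not stated. Concentration: 500 µM. Direction is inferred from retests: higher values go with more growth inhibition. Of about 18,000 compounds tested this way, about 900 (5%) reached 50% or more in at least one test.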

SMILES	Mtb glucose medium	Mtb cholesterol medium
COc1ncc(C)cc1NC(=O)CC1CCCO1 (configuration not stated)	-2.235	-4.113
CCCn1nnnc1NCc1ccc(C)s1	71.74	59.92
Cc1cc(CSC(C)C(=O)NC2CC2)no1 (configuration not stated)	11.06	6.974
Cc1noc(OCC(=O)N(C)Cc2ccco2)n1	-9.07	-15.16
CNCCOc1ccccc1C#N	7.058	-2.497
COc1cccc(NC(=O)CSc2nnc(C)n2C)c1	5.981	-1.271
Cc1nn(CCN(C)c2ccccc2)c(N)c1C#N	65.82	38.62
CC(C)CNC(=O)CCN1C(=O)c2cccnc2C1=O	-1.821	-1.205
Cc1ccc(S(=O)(=O)NCc2nnc(N)s2)cc1	25.77	0.6684
CCN1CC2(CCN(CC(=O)N(C)C)CC2)OC1=O	-3.964	-2.454
O=C(NCCN1CCCC1)c1ccco1	6.779	11.12
CC(=O)c1cccc(NC(=O)CN2CCC[C@H]2CO)c1	12.55	1.767
CCn1nc(CC(C)C)cc1C(=O)N1CC(O)C1	3.617	22.63
Cc1ccoc1C(=O)N(C)Cc1ccc[nH]1	22.94	24.02
CC(C)CC(=O)N1CCNCC1	2.188	-9.792
CCCn1cc(S(=O)(=O)NC(CC)[C@H]2C[C@@H](O)C2)cn1 (some centres not stated)	7.433	7.942
CNCCOc1ccccc1OC	15.71	5.351
CCc1ccsc1C(=O)N1CCOCC1c1ncon1 (configuration not stated)	18.46	8.732
OCCCSc1nnc(C2CC2)n1C1CC1	15.64	1.861
CC(C)(C)OC(=O)N1CCOCC1c1nnco1 (configuration not stated)	-1.272	-23.33
CSCCC(=O)N[C@@H]1CCOC[C@H]1OCCN(C)C	0.7056	-16.64
COCCOCCn1nc(C)c(C#N)c1N	8.067	75.54
CC[C@H](C)[C@H](N)C(=O)NCCCc1ccncc1	12.63	8.082
CCOC(=O)N1CCN(C(=O)C(C)CC)CC1 (configuration not stated)	11.22	6.51
Cc1nn(CCO)c(C)c1CN1CCCC(C#N)C1 (configuration not stated)	4.153	21.9
Cc1cc(F)ccc1S(=O)(=O)N1CCC(O)CC1	29.46	4.895
c1cncc(CN2CCN(Cc3cccnc3)CC2)c1	6.116	11.68
O=C(NC1CCS(=O)(=O)C1)N1CCc2sccc2C1 (configuration not stated)	24.98	7.206
Cc1c[nH]c(C(=O)N2CCCC2c2ccccn2)n1 (configuration not stated)	6.372	6.026
COCC(C)(C)NC(=O)C(C)NC(=O)OC(C)(C)C (configuration not stated)	14.51	17.45
CCC(=O)OC(C)C(=O)Nc1ccc(C(N)=O)cc1 (configuration not stated)	-4.504	6.884
CN(Cc1ccc2nonc2c1)C(=O)c1ccon1	13.68	2.362
CCO[C@@H]1CN(Cc2ccccc2)C[C@H]1CN	14.81	4.745
CN(CC(=O)N1CCCC1)S(=O)(=O)c1ccc(Cl)cc1	49.57	23.1
CN(C)S(=O)(=O)NCCNc1cccc(Br)c1	82.42	73.73
COCC1(CNC(=O)CCCn2ccnc2)CCCC1	25.46	10.53
NC(=O)c1ccc(CNC2CC2)c(F)c1	-5.024	-8.007
CCOc1ccc(C(=O)N2CCN(C)CC2)cc1C	34.83	24.72
CC(C)(C)N1CC(=O)NCC1=O	3.299	2.197
CCS(=O)(=O)c1nnc(N2CCCC2)s1	18.98	19.97
OCC12CCN(CC1)CC2	-6.542	-13.35
Cc1ccoc1C(=O)N1CCC2(CCC2O)CC1 (configuration not stated)	14.52	-3.631
COCCCN1CCC(CNc2cc(C)nc(N)n2)C1 (configuration not stated)	10.76	2.2
OCc1cc(CNc2ncccn2)ccc1F	13.25	9.707
CC(=O)c1c[nH]c(C(=O)NCCNc2ncccn2)c1	11.77	-18.84

Repeated from the top, 5 entries:

SMILES	Mtb glucose medium	Mtb cholesterol medium
COc1ncc(C)cc1NC(=O)CC1CCCO1 (configuration not stated)	-2.235	-4.113
CCCn1nnnc1NCc1ccc(C)s1	71.74	59.92
Cc1cc(CSC(C)C(=O)NC2CC2)no1 (configuration not stated)	11.06	6.974
Cc1noc(OCC(=O)N(C)Cc2ccco2)n1	-9.07	-15.16
CNCCOc1ccccc1C#N	7.058	-2.497